Some of the results follow.
What was measured:
Assay in all cases: log2 fold change, soluble protein after heating vs DMSO (PISA); higher = thermal stabilisation; K562 cells, 10 uM, 30 min; active = over 0.2 and 3.5 SD of the protein, either way, in both replicates (recomputed)
[1] = compound: CS(=O)(=O)c1ccc(-c2cnc(N)c(C(=O)Nc3ccccc3)n2)cc1
Outline: (§1)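 Aliquots of K562 cells (2×10^6 cells/mL) treated with 10 μM compound for 30 min were heated for 3 min over 48°C-58°C. After pooling and extraction in PBS with 0.5% NP-40 at 4°C, soluble protein from a 21,000xg, 90 min spin was quantified by TMTpro 16plex LC-MS/MS with channel sums equalised. Thermal stability is expressed against control samples, from duplicates, as a log2 fold change.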

The chains behind the UniProt entries cited, without tags or fusion partners. Where a name states a change or a piece, a line headed by the entry shows the natural chain unless it says otherwise.
UniProt Q969T4: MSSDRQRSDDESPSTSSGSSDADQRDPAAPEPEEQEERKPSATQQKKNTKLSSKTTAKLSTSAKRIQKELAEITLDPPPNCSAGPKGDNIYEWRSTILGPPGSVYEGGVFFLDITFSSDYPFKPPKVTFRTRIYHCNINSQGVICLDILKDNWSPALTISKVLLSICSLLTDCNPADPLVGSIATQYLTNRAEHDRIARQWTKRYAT
UniProt O43156, whole entry, looked up: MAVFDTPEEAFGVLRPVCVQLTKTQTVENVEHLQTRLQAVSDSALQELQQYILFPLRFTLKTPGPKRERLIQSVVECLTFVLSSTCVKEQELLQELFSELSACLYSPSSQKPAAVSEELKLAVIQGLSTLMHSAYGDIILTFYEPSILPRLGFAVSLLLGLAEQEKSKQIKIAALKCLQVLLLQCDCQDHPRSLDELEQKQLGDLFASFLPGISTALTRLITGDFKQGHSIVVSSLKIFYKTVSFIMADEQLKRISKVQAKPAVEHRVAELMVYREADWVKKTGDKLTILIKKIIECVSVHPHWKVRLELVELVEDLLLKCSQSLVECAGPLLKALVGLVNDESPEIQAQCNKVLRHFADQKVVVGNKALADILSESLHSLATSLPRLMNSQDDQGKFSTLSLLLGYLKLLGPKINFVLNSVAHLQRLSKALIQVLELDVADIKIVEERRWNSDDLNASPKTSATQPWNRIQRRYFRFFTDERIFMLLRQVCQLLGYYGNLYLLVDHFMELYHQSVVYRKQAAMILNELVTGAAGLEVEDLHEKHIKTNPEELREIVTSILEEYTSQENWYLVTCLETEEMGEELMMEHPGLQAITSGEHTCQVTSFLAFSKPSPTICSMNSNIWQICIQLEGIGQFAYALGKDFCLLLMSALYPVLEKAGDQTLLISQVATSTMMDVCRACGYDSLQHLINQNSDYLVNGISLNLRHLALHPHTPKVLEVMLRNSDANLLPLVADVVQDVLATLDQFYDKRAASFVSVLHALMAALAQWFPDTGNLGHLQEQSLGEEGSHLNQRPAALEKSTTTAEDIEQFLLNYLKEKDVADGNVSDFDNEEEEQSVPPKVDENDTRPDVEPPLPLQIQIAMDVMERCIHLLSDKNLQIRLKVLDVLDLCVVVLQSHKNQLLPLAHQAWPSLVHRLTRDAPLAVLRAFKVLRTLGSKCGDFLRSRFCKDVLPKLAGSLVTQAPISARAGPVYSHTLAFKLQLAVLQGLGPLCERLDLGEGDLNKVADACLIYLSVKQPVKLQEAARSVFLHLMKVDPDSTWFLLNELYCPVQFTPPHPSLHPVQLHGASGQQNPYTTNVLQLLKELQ
UniProt P68366, whole entry, looked up: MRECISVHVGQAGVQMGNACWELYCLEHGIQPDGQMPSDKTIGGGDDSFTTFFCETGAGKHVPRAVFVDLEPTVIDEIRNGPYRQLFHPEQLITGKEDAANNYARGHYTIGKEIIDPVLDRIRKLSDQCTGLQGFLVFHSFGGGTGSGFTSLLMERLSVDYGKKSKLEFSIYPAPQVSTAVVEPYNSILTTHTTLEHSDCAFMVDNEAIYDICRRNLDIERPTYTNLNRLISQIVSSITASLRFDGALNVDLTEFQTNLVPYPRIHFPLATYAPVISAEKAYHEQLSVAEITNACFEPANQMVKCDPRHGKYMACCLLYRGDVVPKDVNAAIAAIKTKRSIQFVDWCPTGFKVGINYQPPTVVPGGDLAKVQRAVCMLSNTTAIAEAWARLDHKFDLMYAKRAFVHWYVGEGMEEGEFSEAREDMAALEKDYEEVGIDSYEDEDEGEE
UniProt P60604: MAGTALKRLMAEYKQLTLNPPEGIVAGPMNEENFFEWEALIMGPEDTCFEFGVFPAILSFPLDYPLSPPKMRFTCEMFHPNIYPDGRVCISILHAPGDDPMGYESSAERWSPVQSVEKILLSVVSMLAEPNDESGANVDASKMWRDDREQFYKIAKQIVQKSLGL
UniProt Q8NBP0: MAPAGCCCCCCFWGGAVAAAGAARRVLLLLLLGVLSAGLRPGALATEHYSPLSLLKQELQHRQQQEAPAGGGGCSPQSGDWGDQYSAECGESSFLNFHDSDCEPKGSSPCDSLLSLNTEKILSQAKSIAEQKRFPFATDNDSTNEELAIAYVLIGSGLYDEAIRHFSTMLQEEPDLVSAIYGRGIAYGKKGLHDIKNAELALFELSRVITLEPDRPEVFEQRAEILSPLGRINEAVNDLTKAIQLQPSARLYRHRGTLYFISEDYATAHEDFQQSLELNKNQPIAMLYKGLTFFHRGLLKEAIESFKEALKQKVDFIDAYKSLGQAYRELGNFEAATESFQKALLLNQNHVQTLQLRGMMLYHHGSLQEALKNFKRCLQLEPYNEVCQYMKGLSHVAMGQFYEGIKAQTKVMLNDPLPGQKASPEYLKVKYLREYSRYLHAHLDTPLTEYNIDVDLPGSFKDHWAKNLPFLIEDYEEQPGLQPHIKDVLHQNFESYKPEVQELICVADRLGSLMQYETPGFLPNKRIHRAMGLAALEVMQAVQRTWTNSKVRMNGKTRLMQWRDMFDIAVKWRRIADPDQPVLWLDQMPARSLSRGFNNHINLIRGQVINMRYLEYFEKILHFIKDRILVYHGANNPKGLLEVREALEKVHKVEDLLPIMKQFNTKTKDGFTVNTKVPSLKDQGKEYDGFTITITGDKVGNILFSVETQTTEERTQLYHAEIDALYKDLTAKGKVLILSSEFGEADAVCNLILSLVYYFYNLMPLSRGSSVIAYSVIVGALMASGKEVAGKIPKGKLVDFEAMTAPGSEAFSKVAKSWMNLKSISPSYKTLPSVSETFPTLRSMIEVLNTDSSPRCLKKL
UniProt O43396: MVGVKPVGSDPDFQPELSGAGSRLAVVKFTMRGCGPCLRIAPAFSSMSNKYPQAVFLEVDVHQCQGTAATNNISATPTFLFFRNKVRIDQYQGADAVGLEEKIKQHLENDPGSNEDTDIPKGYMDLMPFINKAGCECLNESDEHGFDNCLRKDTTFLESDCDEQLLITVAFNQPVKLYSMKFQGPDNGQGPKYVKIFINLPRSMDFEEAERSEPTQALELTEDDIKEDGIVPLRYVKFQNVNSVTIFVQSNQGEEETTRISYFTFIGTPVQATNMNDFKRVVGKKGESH
UniProt Q9NV66: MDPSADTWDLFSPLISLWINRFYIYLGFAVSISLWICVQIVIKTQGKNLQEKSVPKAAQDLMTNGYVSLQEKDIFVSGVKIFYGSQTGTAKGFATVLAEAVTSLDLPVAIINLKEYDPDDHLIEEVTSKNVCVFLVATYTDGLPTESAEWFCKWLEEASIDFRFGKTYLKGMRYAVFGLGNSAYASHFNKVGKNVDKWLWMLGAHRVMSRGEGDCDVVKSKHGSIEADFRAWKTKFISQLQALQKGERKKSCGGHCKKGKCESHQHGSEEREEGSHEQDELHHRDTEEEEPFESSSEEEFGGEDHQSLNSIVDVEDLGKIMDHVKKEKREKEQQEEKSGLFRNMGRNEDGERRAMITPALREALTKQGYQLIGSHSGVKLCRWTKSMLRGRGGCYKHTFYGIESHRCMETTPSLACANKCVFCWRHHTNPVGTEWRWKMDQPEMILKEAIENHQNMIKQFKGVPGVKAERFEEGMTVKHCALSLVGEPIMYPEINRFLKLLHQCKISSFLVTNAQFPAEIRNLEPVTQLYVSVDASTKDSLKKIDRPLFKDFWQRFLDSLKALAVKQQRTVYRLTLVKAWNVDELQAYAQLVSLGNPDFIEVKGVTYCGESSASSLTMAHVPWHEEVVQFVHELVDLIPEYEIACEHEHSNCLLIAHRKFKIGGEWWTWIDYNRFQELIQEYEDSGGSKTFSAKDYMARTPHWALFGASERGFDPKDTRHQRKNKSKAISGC
UniProt Q99816: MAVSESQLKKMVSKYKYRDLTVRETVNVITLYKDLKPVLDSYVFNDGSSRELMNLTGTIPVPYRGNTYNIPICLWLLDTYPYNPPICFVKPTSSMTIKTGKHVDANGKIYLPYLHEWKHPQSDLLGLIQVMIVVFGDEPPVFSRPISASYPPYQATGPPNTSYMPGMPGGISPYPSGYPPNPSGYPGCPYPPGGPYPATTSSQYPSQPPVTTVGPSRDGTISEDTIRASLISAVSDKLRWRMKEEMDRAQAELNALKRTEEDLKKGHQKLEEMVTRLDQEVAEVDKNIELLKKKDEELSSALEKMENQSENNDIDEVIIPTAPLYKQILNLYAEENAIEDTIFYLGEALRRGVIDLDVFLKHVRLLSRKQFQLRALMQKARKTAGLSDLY
UniProt Q99757: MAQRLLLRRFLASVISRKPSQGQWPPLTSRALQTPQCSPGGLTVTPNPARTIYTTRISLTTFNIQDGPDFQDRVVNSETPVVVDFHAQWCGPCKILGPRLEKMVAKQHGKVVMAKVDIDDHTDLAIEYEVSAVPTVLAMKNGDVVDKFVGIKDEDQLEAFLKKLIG

[2] = compound: C[C@@H](Oc1cc(-c2cnn(C3CCNCC3)c2)cnc1N)c1c(Cl)ccc(F)c1Cl [crizotinib]
Outline: as §1

[3] = compound: C[C@@H]1COCCN1C2=NC(=NC(=C2)C3(CC3)S(=O)(=O)C)C4=C5C=CNC5=CC=C4
Outline: as §1

[4] = compound: C[C@H](C1=CC=C(C=C1)C(=O)NC2=C3C=CNC3=NC=C2)N
Outline: as §1

[5] = compound: Cc1cc(Nc2cc(CN3CCOCC3)c3nc(C)c(Cc4ccc(Cl)cc4F)n3n2)n[nH]1 [gandotinib]
Outline: as §1

[6] = compound: Cc1cc(SCc2sc(-c3ccc(C(F)(F)F)cc3)nc2C)ccc1OCC(=O)O
Outline: as §1

[7] = compound: Cc1ccc(-n2nc(C(C)(C)C)cc2NC(=O)Nc2ccc(OCCN3CCOCC3)c3ccccc23)cc1 [doramapimod]
Outline: as §1

[8] = compound: Cc1ccc(C(=O)N(CCCN)[C@@H](c2nc3cc(Cl)ccc3c(=O)n2Cc2ccccc2)C(C)C)cc1 [ispinesib]
Outline: as §1

[9] = compound: Cc1ccc(NC(=O)c2ccc(CN3CC[C@H](N(C)C)C3)c(C(F)(F)F)c2)cc1Nc1nccc(-c2cncnc2)n1 [bafetinib]
Outline: as §1

[10] = compound: Cc1cccc(CC(=O)N2CCc3c2ccc(-c2cn(C)c4ncnc(N)c24)c3F)n1
Outline: as §1

[11] = compound: Cc1cn(-c2cc(NC(=O)c3ccc(C)c(Nc4nccc(-c5cccnc5)n4)c3)cc(C(F)(F)F)c2)cn1 [nilotinib]
Outline: as §1

[12] = compound: Cc1nc(Nc2n[nH]c3c2CN(C(=O)N[C@H](CN(C)C)c2ccccc2)C3(C)C)c2sccc2n1
Outline: as §1

[13] = compound: Cc1nc(Nc2ncc(C(=O)Nc3c(C)cccc3Cl)s2)cc(N2CCN(CCO)CC2)n1 [dasatinib]
Outline: as §1

[14] = compound: Cc1ncc(-c2ccnc(Nc3ccc(S(C)(=O)=O)cc3)n2)n1C(C)C
Outline: as §1

[15] = compound: Cn1cc(-c2ccc3c(c2)CCN3C(=O)Cc2cccc(C(F)(F)F)c2)c2c(N)ncnc21
Outline: as §1

[16] = compound: Cn1cc(-c2ccc3nnc(C(F)(F)c4ccc5ncccc5c4)n3n2)cn1
Outline: as §1

[17] = compound: Cn1cncc1[C@@](N)(c1ccc(Cl)cc1)c1ccc2c(c1)c(-c1cccc(Cl)c1)cc(=O)n2C [tipifarnib]
Outline: as §1

[18] = compound: FC(F)(F)c1ccc(/C=C/c2nc(COc3ccc(CCCCn4ccnn4)cc3)co2)cc1 [mubritinib]
Outline: as §1

[19] = compound: C[C@H](Nc1ncnc2nc[nH]c12)c1cc2cccc(Cl)c2c(=O)n1-c1ccccc1 [duvelisib]
Outline: as §1

[20] = compound: Cc1cc(Nc2cc(N3CCN(C)CC3)nc(Sc3ccc(NC(=O)C4CC4)cc3)n2)n[nH]1 [tozasertib]
Outline: as §1

Measured: log2 fold change

UBE2E3 (UniProt Q969T4)
inactive: [1] 0.008 | [2] 0 | [3] 0.219 | [4] 0.008 | [5] -0.052 | [6] 0.034 | [7] 0.03 | [8] -0.005 | [9] -0.029 | [10] -0.029 | [11] -0.126 | [12] 0.023 | [13] -0.113 | [14] 0.025 | [15] -0.028 | [16] -0.004 | [17] -0.131 | [18] 0.056

TTI1 (UniProt O43156)
inactive: [1] 0.075 | [2] -0.143 | [3] 0.003 | [4] 0.059 | [5] -0.119 | [6] 0.033 | [7] 0.059 | [8] -0.204 | [9] -0.006 | [10] 0.165 | [11] -0.036 | [12] -0.102 | [13] -0.076 | [14] 0.039 | [15] 0.085 | [16] 0 | [17] -0.103 | [18] 0.095

TUBA4A (UniProt P68366)
inactive: [1] 0.004 | [2] -0.11 | [3] 0.099 | [4] -0.054 | [5] 0.014 | [6] 0.208 | [7] 0.008 | [8] 0.009 | [9] 0.038 | [10] -0.028 | [11] -0.011 | [12] 0.008 | [13] -0.102 | [14] -0.009 | [15] 0.047 | [16] 0.051 | [17] -0.073 | [18] 0.073

UBE2G2 (UniProt P60604)
inactive: [1] 0.341 | [2] -0.214 | [4] -0.114 | [19] 0.205 | [5] 0.056 | [20] -0.04 | [6] 0.049 | [7] -0.02 | [8] -0.239 | [9] -0.021 | [10] 0.096 | [11] -0.033 | [12] 0.044 | [13] -0.148 | [14] -0.015 | [15] 0.136 | [16] 0.222 | [17] -0.033 | [18] 0.036

TTC13 (UniProt Q8NBP0)
inactive: [1] 0.085 | [2] -0.212 | [4] 0.034 | [19] 0 | [5] 0.142 | [20] 0.062 | [6] 0.041 | [7] 0.191 | [8] -0.143 | [10] -0.117 | [13] 0.194 | [15] -0.258 | [16] 0.112

TXNL1 (UniProt O43396)
inactive: [1] 0.027 | [2] 0.067 | [3] -0.01 | [4] -0.028 | [5] -0.076 | [6] 0.068 | [7] -0.049 | [8] 0.07 | [9] 0.04 | [10] 0.005 | [11] -0.035 | [12] -0.006 | [13] -0.074 | [14] 0.008 | [15] -0.004 | [16] -0.035 | [17] -0.06 | [18] 0.057

TYW1 (UniProt Q9NV66)
inactive: [1] 0.038 | [2] 0.143 | [3] 0.032 | [4] 0.053 | [5] -0.004 | [6] 0.021 | [7] 0.008 | [8] 0.179 | [9] -0.003 | [10] 0.033 | [11] -0.107 | [12] -0.005 | [13] 0.015 | [14] 0.04 | [15] -0.001 | [16] -0.085 | [17] -0.041 | [18] -0.075

Random excerpt: two records from the list
TTC13 (UniProt Q8NBP0)
inactive: [1] 0.085 | [2] -0.212 | [4] 0.034 | [19] 0 | [5] 0.142 | [20] 0.062 | [6] 0.041 | [7] 0.191 | [8] -0.143 | [10] -0.117 | [13] 0.194 | [15] -0.258 | [16] 0.112

UBE2G2 (UniProt P60604)
inactive: [1] 0.341 | [2] -0.214 | [4] -0.114 | [19] 0.205 | [5] 0.056 | [20] -0.04 | [6] 0.049 | [7] -0.02 | [8] -0.239 | [9] -0.021 | [10] 0.096 | [11] -0.033 | [12] 0.044 | [13] -0.148 | [14] -0.015 | [15] 0.136 | [16] 0.222 | [17] -0.033 | [18] 0.036

Additional records.

TSG101 (UniProt Q99816)
inactive: [1] 0.035 | [2] -0.094 | [3] 0.082 | [4] -0.054 | [5] -0.024 | [6] 0.018 | [7] 0.009 | [8] -0.037 | [9] -0.096 | [10] -0.034 | [11] -0.014 | [12] -0.081 | [13] -0.092 | [14] -0.007 | [15] 0.033 | [16] -0.024 | [17] -0.033 | [18] 0.052

TXN2 (UniProt Q99757)
active: [4] -0.317
inactive: [1] -0.001 | [2] 0.128 | [3] -0.047 | [5] 0.105 | [6] -0.026 | [7] -0.034 | [8] 0.028 | [9] -0.105 | [10] -0.104 | [11] 0.034 | [12] -0.005 | [13] 0.083 | [14] -0.048 | [15] 0.227 | [16] 0.013 | [17] 0.059 | [18] 0.009

— the supplement of paper PMC10849652
